Source: PubChem BioAssay AID504808 (Drosophila RNAi Screening Center, 2011)

Test: 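Chromatin factors that keep E2F targets switched off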 (primary screen)
Cells: Drosophila S2 cells
Knock-down reagent: long dsRNA against Drosophila genes
Measurement: 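Dual luciferase plate measurements; E2F-specific signal taken as firefly over Renilla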
Scale: E2F firefly: higher = more E2F reporter activity; Renilla normaliser: higher = more normaliser reporter signal
Hit rule: 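Called active if the normalised E2F reporter went up by over 50%; the cutoff is arbitrary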
The deposit covers about 21,000 reagents; shown is a random part of those with a known target gene and a result. Over the whole deposit, 18 (0.084%) are marked active. 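Raw counts without plate normalisation, one of two replicates; the ratio scores behind the calls were not deposited.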 Reagents against one gene are numbered here. The record does not give: the amount of reagent, the time to read-out.

{"gene knocked down": "Antdh", "dsRNA no.": 1, "E2F firefly, rep 1": 1.35e5, "Renilla normaliser, rep 1": 6901, "Outcome": "inactive"}
{"gene knocked down": "alphaTub85E", "dsRNA no.": 1, "E2F firefly, rep 1": 92242, "Renilla normaliser, rep 1": 5493, "Outcome": "inactive"}
{"gene knocked down": "T48", "dsRNA no.": 1, "E2F firefly, rep 1": 1.16e5, "Renilla normaliser, rep 1": 5801, "Outcome": "inactive"}
{"gene knocked down": "Ald2", "dsRNA no.": 1, "E2F firefly, rep 1": 97563, "Renilla normaliser, rep 1": 5086, "Outcome": "inactive"}
{"gene knocked down": "Pex12", "dsRNA no.": 1, "E2F firefly, rep 1": 1.52e5, "Renilla normaliser, rep 1": 6301, "Outcome": "inactive"}
{"gene knocked down": "GlcAT-S", "dsRNA no.": 1, "E2F firefly, rep 1": 85401, "Renilla normaliser, rep 1": 3779, "Outcome": "inactive"}
{"gene knocked down": "Cyp4e2", "dsRNA no.": 1, "E2F firefly, rep 1": 2740, "Renilla normaliser, rep 1": 202, "Outcome": "inactive"}
{"gene knocked down": "CG5026", "dsRNA no.": 1, "E2F firefly, rep 1": 66323, "Renilla normaliser, rep 1": 3225, "Outcome": "inactive"}
{"gene knocked down": "RpL36A", "dsRNA no.": 1, "E2F firefly, rep 1": 1.14e5, "Renilla normaliser, rep 1": 5832, "Outcome": "inactive"}
{"gene knocked down": "dpr3", "dsRNA no.": 1, "E2F firefly, rep 1": 1.77e5, "Renilla normaliser, rep 1": 6098, "Outcome": "inactive"}
{"gene knocked down": "dpr3", "dsRNA no.": 2, "E2F firefly, rep 1": 1.74e5, "Renilla normaliser, rep 1": 6227, "Outcome": "inactive"}
{"gene knocked down": "PIP82", "dsRNA no.": 1, "E2F firefly, rep 1": 1.26e5, "Renilla normaliser, rep 1": 6948, "Outcome": "inactive"}
{"gene knocked down": "CG32021 (retired record)", "dsRNA no.": 1, "E2F firefly, rep 1": 66151, "Renilla normaliser, rep 1": 3719, "Outcome": "inactive"}
{"gene knocked down": "CG6425", "dsRNA no.": 1, "E2F firefly, rep 1": 1725, "Renilla normaliser, rep 1": 872, "Outcome": "inactive"}
{"gene knocked down": "vret", "dsRNA no.": 1, "E2F firefly, rep 1": 74157, "Renilla normaliser, rep 1": 3490, "Outcome": "inactive"}
{"gene knocked down": "CG8008", "dsRNA no.": 1, "E2F firefly, rep 1": 3115, "Renilla normaliser, rep 1": 197, "Outcome": "inactive"}
{"gene knocked down": "Cpr47Ed", "dsRNA no.": 1, "E2F firefly, rep 1": 1.16e5, "Renilla normaliser, rep 1": 4089, "Outcome": "inactive"}
{"gene knocked down": "TpnC47D", "dsRNA no.": 1, "E2F firefly, rep 1": 89326, "Renilla normaliser, rep 1": 3742, "Outcome": "inactive"}
{"gene knocked down": "shakB", "dsRNA no.": 1, "E2F firefly, rep 1": 97383, "Renilla normaliser, rep 1": 6306, "Outcome": "inactive"}
{"gene knocked down": "shakB", "dsRNA no.": 2, "E2F firefly, rep 1": 1.37e5, "Renilla normaliser, rep 1": 7945, "Outcome": "inactive"}
{"gene knocked down": "ng1", "dsRNA no.": 1, "E2F firefly, rep 1": 1.13e5, "Renilla normaliser, rep 1": 6414, "Outcome": "inactive"}
{"gene knocked down": "JYalpha", "dsRNA no.": 1, "E2F firefly, rep 1": 1.12e5, "Renilla normaliser, rep 1": 5636, "Outcome": "inactive"}
{"gene knocked down": "CG8026", "dsRNA no.": 1, "E2F firefly, rep 1": 3271, "Renilla normaliser, rep 1": 205, "Outcome": "inactive"}
{"gene knocked down": "CG8026", "dsRNA no.": 2, "E2F firefly, rep 1": 1.33e5, "Renilla normaliser, rep 1": 4992, "Outcome": "inactive"}
{"gene knocked down": "TrpRS", "dsRNA no.": 1, "E2F firefly, rep 1": 1.17e5, "Renilla normaliser, rep 1": 6684, "Outcome": "inactive"}
{"gene knocked down": "CG32109", "dsRNA no.": 1, "E2F firefly, rep 1": 1.33e5, "Renilla normaliser, rep 1": 5864, "Outcome": "inactive"}
{"gene knocked down": "Cpr11B", "dsRNA no.": 1, "E2F firefly, rep 1": 7850, "Renilla normaliser, rep 1": 740, "Outcome": "inactive"}
{"gene knocked down": "CG15395", "dsRNA no.": 1, "E2F firefly, rep 1": 1.55e5, "Renilla normaliser, rep 1": 5901, "Outcome": "inactive"}

No new results follow: an excerpt of the list.
{"gene knocked down": "Cyp4e2", "dsRNA no.": 1, "E2F firefly, rep 1": 2740, "Renilla normaliser, rep 1": 202, "Outcome": "inactive"}
{"gene knocked down": "CG5026", "dsRNA no.": 1, "E2F firefly, rep 1": 66323, "Renilla normaliser, rep 1": 3225, "Outcome": "inactive"}
{"gene knocked down": "RpL36A", "dsRNA no.": 1, "E2F firefly, rep 1": 1.14e5, "Renilla normaliser, rep 1": 5832, "Outcome": "inactive"}
